{"source": "PubChem BioAssay AID1159578 (Peter MacCallum Cancer Centre, 2015)", "aim": "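Knock-downs that alter how fast lymphatic endothelial cells migrate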 (primary screen)", "cell system": "human lymphatic endothelial cells", "knock-down reagent": "siRNA pool against human genes, 40 nM", "duration": "48 h after transfection", "measurement": "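High-content imaging of dye-stained cells in a scratch assay measures filled wound area and nuclei per well; duplicate means given as ratio to mock and robust z-score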", "reading the numbers": "migration robust z-score: higher = faster migration into the scratch; nuclei per well: higher = more cells in the well", "call rule": "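Migration changed when robust z exceeds 2 or falls below -2 and mean nuclei number is at least 3300; otherwise not called changed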", "calls": "active = migration changed; inactive = no migration change, or too few cells", "note": "Here is one part, drawn at random, of about 18,000 deposited reagents. Over the whole deposit, about 1,030 (5.7%) got an active call. 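Inactive calls also include pools with fewer than 3300 nuclei, whose migration was not assessed.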 Raw values are not corrected between plates. Unmarked entries are inactive. Not all columns of the deposit are shown. No sequences are given here."}
{"gene": "PKD1L2", "migration robust z-score": -0.1, "nuclei per well, duplicate mean": 5311}
{"gene": "LMBR1", "migration robust z-score": -1.27, "nuclei per well, duplicate mean": 3961}
{"gene": "OR4N2", "migration robust z-score": -0.72, "nuclei per well, duplicate mean": 4088}
{"gene": "TBC1D26", "migration robust z-score": 0.42, "nuclei per well, duplicate mean": 4651}
{"gene": "ZZEF1", "migration robust z-score": 0.4, "nuclei per well, duplicate mean": 5088}
{"gene": "CAAP1", "migration robust z-score": 0.42, "nuclei per well, duplicate mean": 5692}
{"gene": "MINAR1", "migration robust z-score": 0.92, "nuclei per well, duplicate mean": 4492}
{"gene": "ANAPC4", "migration robust z-score": -1.12, "nuclei per well, duplicate mean": 5144}
{"gene": "PIGY", "migration robust z-score": 0.99, "nuclei per well, duplicate mean": 6239}
{"gene": "LHFPL7", "migration robust z-score": 0.6, "nuclei per well, duplicate mean": 5044}
{"gene": "SMURF2", "migration robust z-score": "-2.7 (active)", "nuclei per well, duplicate mean": 4432}
{"gene": "IQCN", "migration robust z-score": 0.68, "nuclei per well, duplicate mean": 5824}

2 entries from above, set out differently:
PIGY: migration robust z-score = 0.99; nuclei per well, duplicate mean = 6239
LHFPL7: migration robust z-score = 0.6; nuclei per well, duplicate mean = 5044
